# About 3,700 (7%) of roughly 53,000 sequences were called active.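 How the source made its calls: active means gene knockdowns whose robust z-score for IL-1 alpha signal is at least 2 or at most -2, so actives lie on both sides; inactive means the rest.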 This is one part of the list.
# Experiment: Components of the Cytosolic LPS Sensing Pathway: Gene Identification via Genome-wide siRNA Screen;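 further: robust z of the log signal after scaling to non-targeting control siRNA wells of the plate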
# Details: RAW264.7 macrophages, IL-1a HTRF, actives lie on both sides, screened at 100 nM (by protocol), cells primed 5 h with Pam3CSK4 first
# Method in brief: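 Read-out: IL-1a HTRF on supernatant, divided by plate negative-control median ×100, log-transformed and converted to robust z-score. Cells were RAW264.7 given 100 nM siRNA, Pam3CSK4-primed 5 hours, then LipidA-transfected 24 hour.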
row,Sequence,z-score
1,GAGGGAUAUGUGAAGCCUCTT against Mospd3,inactive: -0.806
2,CGUGGAAGACAUACAACCCTT against Tmem181a,active: 3.03
3,GGACUCCUAUGUGGGUGACTT against Actb,inactive: 0.138
4,GGAUGACUCACAGAAUUUGTT against Olfr167,inactive: -0.572
5,GGAGAUGCUCAUUUUGAUUTT against Mmp8,inactive: 1.76
6,GGUGGCUAGCCAGACAAAATT against Rnf151,inactive: 1.22
7,GCUUAAACCGCCUAUGUUCTT against Spcs1,inactive: 0.782
8,GGAAAGAAUCACAAGGAAATT against Wbp4,inactive: 1.14
9,GGAGCGACAACUGUGAUAUTT against Liph,inactive: -0.717
10,GGCAAAGAAUGCACUUUCUTT against Elapor2,inactive: -0.536
11,AGGUUUUUAGCCUGAGUGATT against Olfr688,inactive: 0.602
12,GGAAUAAGUAGUGAUAGAGTT against Il5ra,inactive: -0.0143
13,GGCUUGACUGAAUAAUAAUTT against Gpr157,inactive: -0.424
14,GCCCAAGUUUCGGUCUCCATT against Map4k1,inactive: -0.0375
15,GAGCAGCUGAUCACUGGAATT against Tuba3a,inactive: 1.49
16,GCAGUCCAUCAAUAUUAUGTT against 9530077C05Rik,inactive: 0.817
17,GCAGUAUUGAUAAAAGUACTT against Fam171b,inactive: 0.242
18,GGAAACACAUCAUUUGAUGTT against Tmem131,inactive: -0.56
19,CCAAGAGGAUUUUCUCUUUTT against Krtap6-1,inactive: -0.0495
20,GGACAACUUCACCUUGAUUTT against Dpysl2,inactive: 0.643
21,GGAACUCAGUCAGGACCAATT against Hnf4aos,inactive: 0.954
22,GGUUCUAGACAAUUACCUGTT against Clic1,active: 2.43

row,Sequence,z-score
1,GGAUCAUUUACAUUCAUACTT against Alg12,active: -2.6
2,GCCCACGUAUUUGUCUGCUTT against Sprn,active: -2.58
3,GGUUGUGCAUUGUUUAUUGTT against Ppfibp1,inactive: -0.788
4,GCUGAUCUUUUUCAACAUGTT against Tas2r102,inactive: 1.02
5,GGCAUACAAAGCCCUCUAUTT against Kcnrg,inactive: -0.457
6,CCUCAUCUACAAGUGUGGUTT against Eef1a2,inactive: -0.622
7,GGUUCAAGCCAUCUUCAAATT against Olfr1325,inactive: -0.876
8,GGUGACAUGGAUGUAGCAATT against Fcsk,inactive: 1.18
9,GGGAAUUCUUCCCACCUCUTT against Pramel7,inactive: -1.1
10,CCUUCCAUCUUUGUCUACCTT against Olfr1181,inactive: -0.39
11,CUUCUUCUAGCCUACCUCATT against Olfr1344,inactive: -0.388
12,CAGUUUUUGGUCUCUAUCUTT against Olfr113,active: 2.27
13,GGCCUAAGAUCAACUGACATT against Prl8a2,inactive: 0.373
14,GCAACACCUACGUUUUUGUTT against Txnl1,inactive: -0.923
15,GGAAGAUGUCUCCUAUGAGTT against Hebp1,active: -2.42
16,GCAAGAGGGUUUGUUCCUUTT against Sec11a,inactive: 0.965
17,CCGAUAAUAUCAAUGGAAATT against Med24,inactive: 0.744
18,GGAAUCCAAGAAGCCACCATT against Ghrl,inactive: 0.341
19,CCAAGGGUAGUAUUUUAAATT against Nufip1,inactive: 0.358
20,GGAACAGCCUAUGUGGUCUTT against Sf3b6,active: -2.17
21,GGUCCAAUGGAUUUUGUUUTT against Pxdc1,active: 2.06
22,GGAGGAGGUGGAAUUCAUUTT against Dnajb6,inactive: -0.299

# Laid out differently: entries from further up.
row | Sequence | z-score
9 | GGGAAUUCUUCCCACCUCUTT against Pramel7 | inactive: -1.1
10 | CCUUCCAUCUUUGUCUACCTT against Olfr1181 | inactive: -0.39
11 | CUUCUUCUAGCCUACCUCATT against Olfr1344 | inactive: -0.388
12 | CAGUUUUUGGUCUCUAUCUTT against Olfr113 | active: 2.27
13 | GGCCUAAGAUCAACUGACATT against Prl8a2 | inactive: 0.373
14 | GCAACACCUACGUUUUUGUTT against Txnl1 | inactive: -0.923
15 | GGAAGAUGUCUCCUAUGAGTT against Hebp1 | active: -2.42

# Carrying on:

row,Sequence,z-score
1,CCCACUGUGAAGAGAGGCATT against Xlr3c,inactive: -1.41
2,GGGUCUGCUGGUUUAUUUUTT against Olfr720,inactive: 0.99
3,GACAAGAUGCACUUCGAAUTT against Uchl3,inactive: 0.741
4,GGAUUUUUGGCUUCAUACUTT against Dcbld2,inactive: 0.0618
5,GGACAGUUGUGUUUCUUCUTT against Senp6,inactive: 1.09
6,GCUUUCUACUAAGCCUGCUTT against Gpr149,inactive: 0.633
7,CGGAAAUGUAAGUACUUUATT against Taf13,active: 2.25
8,GUAGUAACCAGAUCUUAUATT against Vmn1r29,inactive: 0.496
9,GGAGAAGUUGUUCAGGGAATT against Brms1,inactive: -0.0362
10,GGCACGAGGCAGAAUUUUATT against Kctd3,inactive: 0.696
11,GGAGAUCCAUAUCAAUGGGTT against Pgghg,inactive: 0.202
12,GCCUGUUCUAUGUUACUGGTT against Olfr320,inactive: -1.99
13,CCGGAGCUUUAUUGACACGTT against Rbm19,inactive: 1.15
14,GGAUUCUUUCAGGGUCUAATT against Olfr658,inactive: -0.738
15,CCCAGCGCACUUACAUGUCTT against Gpaa1,inactive: 0.558
16,GGAGCCUUACUGGAGAUUUTT against Hacd2,inactive: -0.394
17,GGUUUGCUUUCAUGACUAUTT against Cyp3a41a,inactive: -0.914
18,GGUCCAUACAAGUGUUUGATT against Camk2b,inactive: -0.15
19,GCCCAAGACGAAAAGAUACTT against Mrpl9,inactive: 0.662
20,GGAAGAAUGGAAGAAGAAATT against Clec1a,inactive: -0.596
21,GGCAAUGUGCCCAAUAUCATT against Rfc2,inactive: -1.61
22,GCGUGGGAGACAAAUGAAATT against Sstr5,inactive: -0.053

row,Sequence,z-score
1,GGUGAAGAAAGCACUAGUUTT against Olfr979,inactive: -0.873
2,GGAAAGAAUCCACUUGCAUTT against Xkr5,inactive: -1.35
3,GGUGCUGAAGCUACGCUAUTT against Wnt9b,inactive: -0.918
4,GGGCCAGAGUCAGAAAAGGTT against Ebp,inactive: 1.98
5,GGCGUGAAGAAUUUGUCAATT against Prc1,inactive: 0.878
6,GGAGAAGCAUAAAUUUGAGTT against Nlrc3,inactive: 0.176
7,CGACUUGGAACUCACUGGUTT against Stfa2l1,inactive: -0.178
8,CCUCUUAUUCAGAAUGUCCTT against Bnc2,inactive: 0.451
9,GGUAGAAUUCAAUGUAUCATT against Arhgap17,inactive: -0.615
10,GCUGAUCAGCAUUAUUCACTT against Esyt1,inactive: 0.318
11,GCCAACCUUAGGAGACAUCTT against Zfp40,inactive: -0.553
12,CGAAAAGGUGGACUUUUAGTT against Rnf4,inactive: -0.545
13,GGUCAGACUUGAUUAUUUGTT against F830104G03Rik,inactive: -0.361
14,GGCCAUGGAAAAAUCUCAGTT against Dtna,inactive: 0.557
15,GGCAUCAAUAGGAAGAUGCTT against Rgs19,inactive: 0.182
16,GGGCACAGGAUGAAAUGCATT against Ccdc150,inactive: -0.944
17,GGGAAAAGAUGUUUCUAUCTT against Ifi44,inactive: 1.05
18,GGUGGUUUUUUGUUGUUGUTT against Lhfpl4,inactive: 0.277
19,GGCUCCAAAGUUUGUGCUGTT against Grin3b,inactive: 1.36
20,GGAGACUGUCUAAUAAAAATT against Medag,inactive: 0.0572
21,GGAUAUCAAGGGAUCAGACTT against Chchd4,inactive: 0.00163
22,GGAUGUUUGCUAGCUUCCCTT against Hba-a1,inactive: 0.0494

row,Sequence,z-score
1,GCUCAGCUUAUGACCACGUTT against Mapk3,inactive: 1.5
2,GCCAAUGAACCGAUCUCUGTT against Ep400,active: -2.13
3,GCUUGGAGUCGUAGUUUCUTT against Cass4,inactive: -1.67
4,GGAGUUGUCUGUCUUUAAGTT against Inpp5a,inactive: -0.449
5,GGAACUAGUUUUUAUACUCTT against Igfbp1,active: 2.23
6,GGACAGCGACAAGAUUCCGTT against Sox4,inactive: -0.714
7,GGCCGAGGAUGAAAUUGAGTT against Stk25,inactive: -0.239
8,GGUGGUCUACAGAAAAUUCTT against Ncf1,inactive: -0.908
9,GGAGACUAUUUCAUCUACUTT against Tnfsf15,inactive: 0.347
10,GCUCAUUCACACUUAAUCATT against Dock11,inactive: -0.737
11,GGAAAUGAAGACAUACCUGTT against Olfr175,inactive: 0.741
12,GCGAGUUUGUGCUACAAAATT against Htr7,inactive: 1.3
13,CCAGGUCUAUUUUGCCAUUTT against Dnmbp,inactive: 1.32
14,GCACAUCGCAUUACUAACATT against Pabpc2,inactive: 1.31
15,GGACCACCAUUCCAUCAGATT against Sema3d,inactive: -0.174
16,GGAAAUCCAUCGUUAUUCUTT against Abca8a,active: 2.08
17,GCAGCACCUUUGUGGUUCCTT against Ins2,inactive: -1.1
18,GGGCUUUGGAUGAACUGCATT against Cldn17,inactive: -0.0702
19,GCAGUCAUAACAGAGCAUCTT against Gtf2h3,inactive: 0.931

# Reference: PubChem BioAssay AID1508600 (Functional Genomics Laboratory (NCATS/FGL), 2020)
